According to US12501917B2, “Methods and compositions for treating intestinal disorder” (MARS, INCORPORATED, priority 2019, dated 2025):
No dose or concentration is given here for some results.

Assay: Quantification of bile acids in stool (uPLC-MS)
Format: in vivo, dog
Conditions: bile acid in stool, diet responsive dogs; for Days0vs14_fc: day 0 vs day 14; for Days0vs42_fc: day 0 vs day 42

SMILES | Days0vs14_fc | Days0vs42_fc
C[C@H](CCC(=O)O)[C@H]1CC[C@H]2[C@@H]3[C@H](O)[C@@H](O)[C@@H]4C[C@H](O)CC[C@]4(C)[C@H]3CC[C@]12C [AlphamuricholicAcid, alpha-muricholic acid] | 1.74 | 2.91
C[C@H](CCC(=O)O)[C@H]1CC[C@H]2[C@@H]3[C@H](O)[C@H](O)[C@@H]4C[C@H](O)CC[C@]4(C)[C@H]3CC[C@]12C [GammamuricholicAcid, gamma-muricholic acid] | 16.18 | 18.33
C[C@H](CCC(=O)O)[C@H]1CC[C@H]2[C@@H]3[C@@H](O)[C@H](O)[C@@H]4C[C@H](O)CC[C@]4(C)[C@H]3CC[C@]12C [OmegamuricholicAcid, omega-muricholic acid] | 8.22 | 33.55
